These are yes or no findings as the source states them, for the method shown. Binding calls can cover weak binding; strength is not graded here. For some of these results: Sequences can lack the tags named with a protein.
What was measured:
[1] = target: T1, outer dynein arm intermediate chain IC1 (Chlamydomonas reinhardtii (endogenous in flagella, strain CC-1690)) (UniProt Q39578); experiment: cryo-EM structure; single-particle cryo-EM of the native ODA on doublet microtubules of splayed C. reinhardtii axonemes (splayed with 10 mM Mg-ATP and 750 μM CaCl2 in HMDEKP; 250 μM free Ca2+); apo, post-powerstroke state
T1 sequence: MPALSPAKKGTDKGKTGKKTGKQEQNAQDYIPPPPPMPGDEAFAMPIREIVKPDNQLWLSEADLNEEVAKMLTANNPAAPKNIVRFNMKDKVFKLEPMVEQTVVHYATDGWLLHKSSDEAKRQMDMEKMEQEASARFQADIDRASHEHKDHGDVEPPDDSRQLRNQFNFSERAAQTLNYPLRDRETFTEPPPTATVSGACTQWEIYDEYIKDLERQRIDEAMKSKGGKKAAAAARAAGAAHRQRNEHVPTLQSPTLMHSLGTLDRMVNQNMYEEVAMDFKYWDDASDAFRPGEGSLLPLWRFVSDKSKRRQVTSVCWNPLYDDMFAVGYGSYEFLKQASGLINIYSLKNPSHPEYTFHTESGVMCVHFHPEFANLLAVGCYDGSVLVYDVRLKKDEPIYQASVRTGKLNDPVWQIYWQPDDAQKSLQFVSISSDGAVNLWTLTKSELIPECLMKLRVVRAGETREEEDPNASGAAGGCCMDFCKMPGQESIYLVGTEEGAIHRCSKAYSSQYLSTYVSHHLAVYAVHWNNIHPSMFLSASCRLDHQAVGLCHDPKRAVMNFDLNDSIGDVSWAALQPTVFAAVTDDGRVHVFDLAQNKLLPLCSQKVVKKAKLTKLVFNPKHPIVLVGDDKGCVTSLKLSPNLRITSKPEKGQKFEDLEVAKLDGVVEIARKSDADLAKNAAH

[2] = target: ODA docking complex subunit DC2 (Chlamydomonas reinhardtii (endogenous in flagella, strain CC-1690)); experiment: as above

“outer dynein arm light chain LC7a (Roadblock homolog)” was tested, and the binding [1] was “binds”.

For “outer dynein arm light chain LC7b (Roadblock homolog)”, the binding [1] was “binds”.

outer dynein arm light chain LC8 was tested, and the binding [1] was “binds”.

B1: ODA docking complex subunit DC3 (calcium-binding) (protein, UniProt Q7Y0H2 1-184)
chain: MASAAARERYARKNEQNELERAFNTIDSKGDKKIDAEELTELFLRLGHKPKRGEVEDMIWEVDEDCDGCISLLEFQTLYTRCRDDKTGYEPRGLFNVVEFVMNDKNNQGFITLEEAMQIMYLRYGRAELDMQLEQVFGTADLNSGKILTLTEFLHCLHTNQVKQLLNRVTAKTYKAPPPPQKRK
B1 was tested, and the binding [2] was “binds”.
